Some of the results follow. Single values are uncertain, as repeats are few or missing.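 The cells are hepatocyte-like cells grown from human stem cells in which the DGUOK gene was disrupted by CRISPR, a model of liver mtDNA depletion syndrome. Each well's ATP signal was scored against the other wells on its plate, and a drug counted as a primary hit when its score was 3 or higher.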
What follows are compounds tested on DGUOK Δ14/Δ5 iPSC-derived hepatocyte-like cells (SV20) (assay: ATP level (CellTiter-Glo luminescence) Z score relative to plate distribution, under 2-DG glycolysis block; higher = more cellular ATP (rescue of mitochondrial ATP production)). Conditions: 5 µM; treatment time: day 15 to day 20 of differentiation (5 days); 2-deoxy-D-glucose: 20 mM for 24 h before assay.

SMILES	ATP level
CCOC(=O)CC(SP(=S)(OC)OC)C(=O)OCC (stereo not drawn)	inactive: 0.736
CC(N)Cc1ccc(O)cc1 (stereo not drawn)	inactive: -2.2
CC(NC(C)(C)C)C(=O)c1cccc(Cl)c1 (stereo not drawn)	inactive: -0.0982
NCc1cccnc1	inactive: -0.0605
O=C(O)CCCO	inactive: 0.0317
CN(C)[C@@H]1C(=O)C(C(N)=O)=C(O)[C@@]2(O)C(=O)C3=C(O)c4c(O)cccc4[C@@](C)(O)[C@H]3C[C@@H]12	inactive: -1.52
NCC(O)c1ccc(O)cc1 (stereo not drawn)	inactive: 0.164
O=C1c2ccccc2-c2cccc3cccc1c23	inactive: -3.64
O=c1c2ccccc2[se]n1-c1ccccc1	inactive: -7.08
Cc1ccc(/N=C/N(C)/C=N/c2ccc(C)cc2C)c(C)c1	inactive: -0.263
C[C@]12CC[C@H]3[C@@H](CCC4=CC(=O)CC[C@@]43C)[C@@H]1CC[C@@H]2O	inactive: 0.419
c1ccc2c(c1)Nc1ccccc1S2	inactive: -3.77
C[C@]12CCC(=O)C[C@@H]1CC[C@@H]1[C@@H]2CC[C@]2(C)C(=O)CC[C@@H]12 [5alpha-ANDROSTAN-3,17-DIONE]	inactive: -1.43
CCSCC[C@H](N)C(=O)O	inactive: -0.239
CNC(=O)CSP(=S)(OC)OC	inactive: 0.917
C=CCN1CC[C@]23c4c5ccc(O)c4O[C@H]2C(=O)CC[C@@]3(O)[C@H]1C5	inactive: -1.01
O=c1n(Cl)c(=O)n(Cl)c(=O)n1Cl	inactive: 2.27
C=CCc1ccc2c(c1)OCO2	inactive: 0.12
CNC1CC(N)C(O)C(OC2OC(CO)C(O)C3OC4(OC(C(N)CO)C(O)C(O)C4O)OC23)C1O (stereo not drawn)	active: 3.19
COP(=O)(OC)C(O)C(Cl)(Cl)Cl (stereo not drawn)	inactive: 1.61
COP(=O)(OC)OC=C(Cl)Cl	inactive: 0.872
S=C=NCc1ccccc1	inactive: -0.0139
C[C@]12CCC(=O)C=C1C=C[C@@H]1[C@@H]2CC[C@@]2(C)[C@H]1CC[C@@]2(O)CCC(=O)O	inactive: 1.93
CCNc1nc(Cl)nc(NCC)n1	inactive: 0.489
Cc1cccc(C)c1NC(=O)CN1CCCC1=O	inactive: -1.97
CO[C@H]1[C@H](O)[C@H](O[C@H]2CC[C@@]3(C=O)[C@H](CC[C@@H]4[C@@H]3CC[C@]3(C)[C@@H](C5=CC(=O)OC5)CC[C@]43O)C2)O[C@@H](C)[C@@H]1O	inactive: -9.25

Structures shown so far that have nitrogen in an aromatic ring (four):
SMILES	ATP level
NCc1cccnc1	inactive: -0.0605
O=c1c2ccccc2[se]n1-c1ccccc1	inactive: -7.08
O=c1n(Cl)c(=O)n(Cl)c(=O)n1Cl	inactive: 2.27
CCNc1nc(Cl)nc(NCC)n1	inactive: 0.489

Going on with the list:

SMILES	ATP level
CC[C@@H](C(=O)[C@@H](C)[C@@H](O)[C@H](C)[C@@H]1O[C@@H]([C@@H](CC)C(=O)O)CC[C@@H]1C)[C@H]1O[C@]2(C=C[C@@H](O)[C@]3(CC[C@@](C)([C@H]4CC[C@](O)(CC)[C@H](C)O4)O3)O2)[C@H](C)C[C@@H]1C	inactive: -13.3
CC(=O)O[C@@H]1[C@H]2CC[C@H]3[C@@](C)(O)[C@@H]4C[C@H](O)C(C)(C)[C@@]4(O)[C@H](O)C[C@@]13C[C@@]2(C)O	inactive: 1.33
N[C@H](CO)Cc1ccccc1	inactive: -0.686
Cc1[nH]c2ccccc2c1CN(C)C	inactive: -2.28
CC(C)c1cc2c(c(O)c1O)[C@@]1(C(=O)O)CCCC(C)(C)[C@@H]1CC2	inactive: -2.19
CC(C)c1cccc(C(C)C)c1O	inactive: -1.78
COC1=CC(=O)O[C@@H](/C=C/c2ccccc2)C1	inactive: 2.31
Oc1ccc2c3c1O[C@H]1[C@@H](O)CC[C@@]4(O)[C@@H](C2)N(CC2CCC2)CC[C@]314	inactive: 0.361
O=C(O)CC[N+](=O)[O-]	inactive: -0.0459
CN1CCc2cc3c(cc2[C@H]1[C@@H]1OC(=O)c2c1ccc1c2OCO1)OCO3	inactive: 1.18
CC(=O)O[C@H]1CC[C@@]2(C)C(=CC[C@@H]3[C@@H]2CC[C@]2(C)C(=O)CC[C@@H]32)C1	inactive: 0.329
CN1C[C@H](CNC(=O)OCc2ccccc2)C[C@@H]2c3cccc4c3c(cn4C)C[C@H]21	inactive: -3.6
CC[C@@H](CO)NC(=O)[C@@H]1C=C2c3cccc4c3c(cn4C)C[C@H]2N(C)C1	inactive: -0.491
N#C[C@H](O[C@@H]1O[C@H](CO[C@@H]2O[C@H](CO)[C@@H](O)[C@H](O)[C@H]2O)[C@@H](O)[C@H](O)[C@H]1O)c1ccccc1	inactive: 1.54
COc1cc2c(c(OC)c1OC)-c1ccc(OC)c(=O)cc1[C@@H](NC(C)=O)CC2	inactive: -4.94
CC[C@@]1([C@H]2O[C@H]([C@H]3O[C@@](O)(CO)[C@H](C)C[C@@H]3C)C[C@H]2C)CC[C@H]([C@@]2(C)CC[C@]3(C[C@H](O)[C@@H](C)[C@@H]([C@H](C)[C@H](OC)[C@@H](C)C(=O)O)O3)O2)O1 [MONENSIN SODIUM (monensin A is shown)]	inactive: -13.9
C[C@]12CC[C@H](O)CC1=CC[C@@H]1[C@@H]2CC[C@]2(C)C(=O)CC[C@@H]12	inactive: 0.515
C[C@@H]1C[C@H](O)[C@@]2(O)[C@]13CC(=O)OC[C@@]2(C)[C@@](C)(O)C(=O)C3	inactive: 1.62
CC[N+]1(C)CCCC(OC(=O)C(O)(c2ccccc2)c2ccccc2)C1 (stereo not drawn)	inactive: -0.317
c1ccc2c(c1)OCC(C1=NCCN1)O2 (stereo not drawn)	inactive: 0.297
N#Cc1c(Cl)c(Cl)c(Cl)c(C#N)c1Cl	inactive: 1.94
Cc1cc(C(C#N)c2ccc(Cl)cc2)c(Cl)cc1NC(=O)c1cc(I)cc(I)c1O (stereo not drawn)	inactive: -1.85
COc1ccc2c(c1OC)C(=O)O[C@@H]2[C@H]1c2cc3c(cc2CCN1C)OCO3	inactive: 0.181
O=C(O)c1nn(Cc2ccc(Cl)cc2Cl)c2ccccc12	inactive: 1.47
C[N+]12CC[C@@]34c5ccccc5N5C(=O)C[C@@H]6OCC=C(C1)[C@H](C[C@@H]32)[C@@H]6[C@H]54 (stereo partly drawn)	inactive: -3.71
COc1cc2c(cc1O)CCN[C@@H]2C	inactive: 1.59

A different layout for 2 compounds above:

| SMILES | ATP level |
| --- | --- |
| c1ccc2c(c1)OCC(C1=NCCN1)O2 (stereo not drawn) | inactive: 0.297 |
| N#Cc1c(Cl)c(Cl)c(Cl)c(C#N)c1Cl | inactive: 1.94 |

Carrying on:

SMILES	ATP level
C[C@@H]1C[C@@H]([C@H](O)CC2CC(=O)NC(=O)C2)C(=O)[C@@H](C)C1	inactive: -5.66
O=C(NC(=O)c1c(F)cccc1F)Nc1ccc(Cl)cc1	inactive: -6.2
COc1cc2c(cc1OC)[C@@H]1C(=O)c3ccc4c(c3O[C@@H]1CO2)CC(C(C)C)O4 (stereo partly drawn)	inactive: -14
CCC1(C2=NCCN2)Cc2ccccc2O1 (stereo not drawn)	inactive: 0.636
CC[C@@H](CO)NC(=O)[C@@H]1C=C2c3cccc4[nH]cc(c34)C[C@H]2N(C)C1	inactive: -1.24
CCCCOC(=O)c1ccccc1C(=O)OCCCC	inactive: -0.37
CCC(C)C(=O)OC1CC2(C)C(c3ccoc3)OC(=O)CC23OC2(C)OC34C(OC(=O)C(C)C)C3(O)C(OC(=O)C5(C)OC5C)C5(C)CC3(O)C(C)(C5CC(=O)OC)C14O2 (stereo not drawn)	inactive: -0.983
C[N+]1(C)CCc2cc3c(cc2[C@H]1[C@@H]1OC(=O)c2c1ccc1c2OCO1)OCO3	inactive: -0.792
C=CCc1cc(OC)c2c(c1OC)OCO2	active: 3.08
c1cncc([C@@H]2CCCCN2)c1	inactive: 0.245
CC(=O)O[C@H]1C(=O)[C@@]2(C)[C@H]([C@H](OC(=O)c3ccccc3)[C@]3(O)C[C@H](O)C(C)=C1C3(C)C)[C@]1(OC(C)=O)CO[C@@H]1C[C@@H]2O	inactive: 2.54
CC(C)(C#N)O[C@@H]1O[C@H](CO)[C@@H](O)[C@H](O)[C@H]1O	inactive: -0.523
CC(C)(O)[C@@H]1[C@H]2OC(=O)[C@@H]1[C@]1(O)C[C@H]3O[C@]34C(=O)O[C@H]2[C@]14C	inactive: -0.554
C=C(C)[C@H]1Cc2c(ccc3c(=O)c4c(oc23)COc2cc(OC)c(OC)cc2-4)O1	inactive: -1.48
O=C(O)CF	inactive: -1.64
O=C(CCCN1CCC2(CC1)C(=O)NCN2c1ccccc1)c1ccc(F)cc1	inactive: -0.204
CC1(C)C(=O)[C@@H]2O[C@@H]2[C@@]2(C)C1C[C@@H](O)[C@]1(C)C2CC[C@@]2(C)[C@H](c3ccoc3)OC(=O)C3OC321 (stereo partly drawn) [1,2alpha-EPOXYDEACETOXYDIHYDROGEDUNIN]	inactive: 1.11
COc1cccc(C=O)c1OC	inactive: -3.04
O=[N+]([O-])O[C@H]1CO[C@H]2[C@@H]1OC[C@H]2O[N+](=O)[O-]	inactive: 0.407
O=c1cccc2n1C[C@@H]1CNC[C@H]2C1	active: 3.7
NCC1(CC(=O)O)CCCCC1	inactive: 1.36
COc1cc2ccc(=O)oc2c2ccoc12	inactive: 1.22
CC[C@@H](C)C(=O)O[C@H]1[C@H](O)[C@H]2[C@@H](CN3C[C@@H](C)CC[C@H]3[C@@]2(C)O)[C@@H]2C[C@]34O[C@]5(O)[C@@H](OC(=O)[C@@](C)(O)CC)CC[C@@]3(C)[C@@H]5[C@@H](OC(C)=O)[C@@H](OC(C)=O)[C@H]4[C@@]21O	inactive: 0.924
C=CCc1ccc(OC)cc1	inactive: 0.697
CNC(=O)Oc1cccc2ccccc12	inactive: 0.355
CCOC(=O)c1cncn1[C@H](C)c1ccccc1	inactive: -1.56
